Source: PubChem BioAssay AID493246 (Drosophila RNAi Screening Center, 2011)

Test: 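Identify essential fly genes by loss of cell viability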 (primary screen)
Cell system: Drosophila Kc and S2R+ cells
Reagent: long dsRNA against Drosophila genes
Detection: 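Raw, unnormalised count of remaining cells in each well; per-plate z-scores of cell number underlie the calls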
Direction: Kc cell number and S2R+ cell number: higher = more cells remaining
Hit rule: 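Counted as a hit if cell number falls by a z-score of at least 3 within its plate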
In all, the deposit lists about 21,000 reagents; shown is a random part of those that have a named target and a result. In the full data, 429 (2%) were called active. 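Values are raw and not normalised between plates; calls rest on per-plate z-scores that were not deposited.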 A number with no mark means an inactive call. A plus sign joins genes that one reagent is predicted to hit. Reagent sequences are not shown. Not given: the amount of reagent, the time to read-out.

gene	DRSC id	Kc cell number, rep 1	Kc cell number, rep 2	S2R+ cell number, rep 1	S2R+ cell number, rep 2
CG9667	DRSC16535	1.50e6	1.61e6	1.13e6	1.26e6
CG13288	DRSC09962	1.68e6	1.67e6	1.10e6	1.15e6
CG17187	DRSC15181	1.51e6	1.54e6	1.30e6	1.37e6
Prim1	DRSC11137	1.49e6	1.42e6	1.07e6	1.12e6
CtIP	DRSC11785	1.48e6	1.64e6	1.33e6	1.42e6
nudC	DRSC11096	1.41e6	1.51e6	1.27e6	1.35e6
nudC	DRSC11097	1.35e6	1.46e6	1.30e6	1.39e6
CG15643	DRSC19679	1.44e6	1.49e6	1.05e6	1.14e6
Bro	DRSC08149	1.36e6	1.28e6	1.02e6	1.26e6
CG14739	DRSC14959	1.63e6	1.57e6	1.27e6	1.33e6
CG2444	DRSC19846	1.52e6	1.47e6	1.06e6	1.10e6
CG33493	DRSC10642	1.52e6	1.47e6	1.25e6	1.42e6
mv	DRSC08208	1.50e6	1.32e6	1.03e6	1.35e6
mv	DRSC08570	1.50e6	1.27e6	9.65e5	1.36e6
Tdc1	DRSC04942	1.55e6	1.63e6	1.07e6	1.14e6
CG2790	DRSC04045	1.35e6	1.37e6	1.14e6	1.08e6
CG15529	DRSC15066	1.48e6	1.54e6	1.13e6	1.19e6
Muc68Ca	DRSC10313	1.29e6	1.64e6	1.18e6	1.30e6
CG6329	DRSC06976	1.37e6	1.50e6	2.63e5	1.15e6
Cp18	DRSC11120	1.29e6	1.27e6	1.12e6	1.17e6
Sh3beta	DRSC11001	1.49e6	1.67e6	1.24e6	1.04e6
inaC	DRSC07632	1.43e6	1.44e6	1.26e6	1.36e6
CG9682	DRSC16536	5.52e5		8.66e5	
BBS5	DRSC12168	1.59e6	1.52e6	1.45e6	1.50e6
cert	DRSC09674	1.32e6	1.40e6	1.22e6	1.12e6
CG17140 + CG17139	DRSC02585	1.58e6	1.68e6	1.34e6	1.47e6
CG17140 + CG17139	DRSC02586	1.53e6	1.64e6	1.32e6	1.39e6
CG6959	DRSC16151	1.55e6	1.59e6	1.36e6	1.42e6
Obp58b	DRSC04161	1.48e6	1.56e6	1.28e6	1.31e6
Ir67b	DRSC09876	1.60e6	1.69e6	1.15e6	1.34e6
Sirup	DRSC03031	1.54e6	1.55e6	1.20e6	1.38e6
CG33627	DRSC05343	1.69e6	1.75e6	1.06e6	1.30e6
Polr1F	DRSC02278	1.23e6	1.35e6	5.57e5	5.43e5
CG31205	DRSC13438	1.38e6	1.46e6	8.58e5	9.49e5
CG1416	DRSC03706	1.52e6	1.64e6	1.16e6	1.17e6
gcm2	DRSC03538	1.46e6	1.49e6	1.20e6	1.31e6
sax	DRSC07675	1.45e6	1.51e6	1.11e6	1.18e6
Sardh	DRSC06981	1.39e6	1.49e6	1.09e6	1.11e6
Sur	DRSC03447	1.33e6	1.36e6	1.06e6	1.06e6
arr	DRSC07451	1.45e6	1.50e6	1.21e6	1.28e6
Acp26Aa	DRSC01855	1.49e6	1.40e6	1.07e6	1.27e6
Osi11	DRSC12282	1.57e6	1.78e6	1.28e6	1.36e6
OXA1L	DRSC09672	1.24e6	1.34e6	1.02e6	9.99e5
Gr64d + Gr64e	DRSC08446	1.38e6	1.44e6	1.04e6	1.20e6
CG13051	DRSC09932	1.41e6	1.55e6	1.39e6	1.49e6
TwdlL	DRSC16042	5.36e5		7.48e5	
subdued	DRSC15137	1.45e6	1.57e6	1.11e6	1.17e6
Elp2	DRSC06095	1.55e6	1.60e6	1.23e6	1.23e6
Ptp36E	DRSC03021	1.78e6	1.97e6	1.26e6	1.38e6
CG10909	DRSC14282	1.80e6	1.98e6	1.36e6	1.51e6
CG14915	DRSC02399	1.53e6	1.60e6	1.16e6	1.29e6
CG7387	DRSC10833	1.29e6	1.34e6	1.41e6	1.25e6
CG32374	DRSC10986	1.35e6	1.51e6	1.22e6	1.29e6
wash	DRSC06302	1.54e6	1.56e6	1.19e6	1.26e6
CG34289	DRSC13625	1.24e6	1.52e6	1.09e6	1.12e6
Cpr49Ad	DRSC07284	1.56e6	1.56e6	1.19e6	1.33e6
CG42755 (retired record)	DRSC09105	1.48e6	1.70e6	1.10e6	1.25e6
CG42755 (retired record)	DRSC09106	1.46e6	1.56e6	1.02e6	1.23e6
Slimp	DRSC13656	1.03e6	1.24e6	1.04e6	1.07e6

Look-ups from the list:
Entry for Gr64d + Gr64e [DRSC08446] in “S2R+ cell number, rep 2”: 1.20e6
Entry for Bro [DRSC08149] under “S2R+ cell number, rep 2”: 1.26e6
Under “Kc cell number, rep 2”, Osi11 [DRSC12282] has 1.78e6
Under “Kc cell number, rep 1”, CG6329 [DRSC06976] reads 1.37e6
For “Kc cell number, rep 2”, CG2444 [DRSC19846] has 1.47e6
Under “S2R+ cell number, rep 2”, mv [DRSC08570] has 1.36e6
